Data taken from the supplement of paper PMC5949888.
± gives the standard deviation of the averaged measurements. Most values lie at the floor of the assay. Slopes are relative: functional sequences can read slightly below zero.

Test system: Saccharomyces cerevisiae PS128 hsf1 delta, HSF1(1-493) fusion
Assay: growth estimate (transactivation domain function in HSF1 fusion, heat-shock survival) (a.u. (slope of normalised read count over time)); higher = stronger growth at 37°C, i.e. more transactivation activity
Conditions: library: random library

Substance	growth estimate
LSSKKCRQSRYRTQSPGPSE	< -0.25
LSSMRSEYS	< -0.25
LSSRSILWD	< -0.25
LSSS	-0.244 ± 0.011
LSSTVSTLGSLVRTISSDT	< -0.25
LSSVHN	< -0.25
LSTASREDSQANGWV	< -0.25
LSTKARQQRLDVHISRSAET	< -0.25
LSTPLLAGQVLGQTGGKRIY	< -0.25
LSTQQNIPDQEGYHSHGFCR	< -0.25
LSTV	< -0.25
LSTVF	< -0.25
LSV	< -0.25
LSVDLVRYQYYLRREIFLDS	< -0.25
LSVKPDAYGHAAMYSHRPKG	< -0.25
LSVRCDVAGEHDMASRIMAP	< -0.25
LSVVLPPHLIGAIKGIRDGT	< -0.25
LSWEDTRALVFVGAQSPSPY	< -0.25
LSWGGDCVQGKCLHKVTTLA	< -0.25
LSWSIRR	< -0.25
LSYGDM	< -0.25
LSYSGMGPRRYLYLVNEQCT	< -0.25
LSYSSLTSEDFAQAYSVATT	-0.243
LTAATRLPMCSCVCCGPGTT	< -0.25
LTAE	< -0.25
LTAF	< -0.25

Substance	growth estimate
LTAKV	< -0.25
LTALDCFASVIPRAA	< -0.25
LTC	-0.243
LTCITPGWHRGCNR	< -0.25
LTDRKLSSGRLRSTSPTADI	< -0.25
LTEQKQYRDVHSTGLKCKAG	< -0.25
LTERMRRFKIRL	< -0.25
LTFGGGSGSERSSSLDHHFQ	< -0.25
LTFRYTLPPNGVRGIPGKSE	< -0.25
LTFV	< -0.25
LTGDTLEGPE	< -0.25
LTGICNLGKQWLRF	< -0.25
LTGRPKPRVARAAGFNAGSS	< -0.25
LTGVLPEGPGTGRAVGRSAP	< -0.25
LTHRGAPSIQL	< -0.25
LTI	< -0.25
LTIWSKRYVDISLRCGVLGC	< -0.25
LTKRKGDLFQPRDERSAIRE	< -0.25
LTKRNGMG	< -0.25
LTLGMQ	< -0.25
LTLHL	< -0.25
LTMLVLRTSRIRCFIDDIHH	< -0.25
LTN	< -0.25
LTNIGGPTETD	< -0.25
LTPEQLRLGAGLRYAAFIVD	< -0.25
LTPPELARIGNTELRGSKHM	< -0.25

Substance	growth estimate
LTPS	< -0.25
LTPSSTCSFGSSFLLRLRSI	< -0.25
LTPVTRLRRLLCCAAV	< -0.25
LTQD	< -0.25
LTQERWFSDGRRISF	< -0.25
LTQGPELYSHLAEHSYVIAK	< -0.25
LTQSARSKGLVIPMVVGIRL	< -0.25
LTRRDQQNIPTLKYGLVC	< -0.25
LTRVPGEVRHKPSRAESSWY	< -0.25
LTSASIKGLSVSRSLQTYLG	< -0.25
LTSCHGN	< -0.25
LTSISEDKKGIPRLASSSAQ	< -0.25
LTSKYGIPW	< -0.25
LTSMARVRQ	< -0.25
LTSQVNWWTDLFWVGVFRGT	< -0.25
LTSRETAGIGTVKFGFTEAR	< -0.25
LTSSGVGLRAGTRSE	< -0.25
LTSSQVSGE	< -0.25
LTSSTWEDILCRKCQHCASL	< -0.25
LTTMGYGFGTAEKIGLPRRG	< -0.25
LTTPISCESDGDI	< -0.25
LTVHRMVRLTQRIRLQHLGW	-0.25
LTVNVGLVSDGRIFRREARP	< -0.25
LTVRF	< -0.25
LTVRHGSLAVRRLNAIAALT	< -0.25
LTYEPEQCHCRVICQMCNLS	< -0.25

Rewritten as labelled records: entries from further up.
LTKRKGDLFQPRDERSAIRE
  growth estimate: < -0.25
LTN
  growth estimate: < -0.25

Going on with the list.

Substance	growth estimate
LTYRCIRAKERVRELRAPPI	< -0.25
LVAAIGL	< -0.25
LVAKLIPDIIGTPSQNYAIL	< -0.25
LVALSRPTQPSCP	< -0.25
LVAMCLRGWCSPRNQ	< -0.25
LVATITVFGPQET	< -0.25
LVAVTVFPTVG	< -0.25
LVAVVR	< -0.25
LVC	< -0.25
LVCFKLITGVRWYHDSQGKY	< -0.25
LVCRL	< -0.25
LVCTSTLDHGGQFEPHVVLS	< -0.25
LVCVGRIFACGPLHGPFYLR	< -0.25
LVDIYYPGPGIGRGVNMARR	< -0.25
LVDSKLPYKSIIYRHDCNQS	< -0.25
LVEAACKARGNRDPSKVA	< -0.25
LVEGPR	< -0.25
LVEGYFTRFAWAIYLCIRLR	< -0.25
LVEGYVTF	< -0.25
LVFENPVT	< -0.25
LVFNSGNQVLQALLTRL	< -0.25
LVFRRSRLCIPRLVKPSA	< -0.25
LVFRVVGAFSRAGFVVAHRY	< -0.25
